Experimental data from the supplement of paper PMC7877785.
± gives the uncertainty stated by the source. Many of these values have a large error.

Test: self-splicing fitness, log relative to wild type (ln ratio); higher = more splicing; Tetrahymena group I intron in knt gene, E. coli kanamycin selection, DiMSum; sequences stand for … in CUCUCU…GGAGGGAAAAGUUAUCAGGCAUGCACCUGGUAGCUAGUCUUUAAACCAAUAGAUUGCAUCGGUUUAAAAGGCAAGACCGUCAAAUUGCGGGAAAGGGGUCAACAGCCGUUCAGUACCAAGUCUCAGGGGAAACUUUGAGAUGGCCUUGCAAAGGGUAUGGUAAUAAGCUGACGGACAUGGUCCUAACCACGCAGCCAAGUCCUAAGUCAACAGAUCUUCUGUUGAUAUGGAUGCAGUUCACAGACUAAAUGUCGGUCGGGGAAGAUGUAUUCUUCUCAUAAGAUAUAGUCGGACCUCUCCUUAAUGGGAGCUAGCGGAUGAAGUGAUGCAACACUGGAGCCGCUGGGAACUAAUUUGUAUGCGAAAGUAUAUUGAUUAGUUUUGGAGUACUCGUGGUCG
How it was run: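 The eight P1ex-region nucleotides of an intron in the knt kanamycin-resistance gene on pET-22b(+) were all randomised and the library put into E. coli BL21(DE3). Six replicate transformations were grown overnight at 37°C or 30°C on LB agar with or without 25 μg/mL kanamycin, together with 100 μg/mL carbenicillin, 50 μM IPTG and 0.2% rhamnose. Colonies were pooled and amplicon-sequenced on an Illumina HiSeq 2500. Fitness from DiMSum is the error-weighted combination of wild-type-normalised replicate fold changes, kanamycin over none.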

Row | Sequence | self-splicing fitness (ln) (30 °C) | self-splicing fitness (ln) (37 °C)
1 | GGAAAGCAAUAUUACGAACC | -3.32 ± 0.33 | -1.2 ± 0.19
2 | CCAAAGCAAUAUUACGACAC | -4.67 ± 0.51 | 
3 | CGUGAGCAAUAUUACGCGGA | -4.06 ± 0.74 | 
4 | CAUUAGCAAUAUUACGCUUA | -2.22 ± 0.13 | -2.16 ± 0.15
5 | UCGGAGCAAUAUUACGGAAA | -3.81 ± 0.51 | 
6 | CAGGAGCAAUAUUACGGUAA | -4.48 ± 0.73 | 
7 | AGAUAGCAAUAUUACGCCUC | -3.23 ± 0.26 | -2.26 ± 0.29
8 | CCGAAGCAAUAUUACGCAGG |  | -2.18 ± 0.76
9 | CAUGAGCAAUAUUACGCUUU | -4.58 ± 0.51 | -3.02 ± 0.24
10 | AGAUAGCAAUAUUACGUUAC |  | -2.97 ± 0.6
11 | AUGGAGCAAUAUUACGGAUG | -4.35 ± 0.51 | -2.29 ± 0.37
12 | CCGGAGCAAUAUUACGUUCC |  | -0.234 ± 1.4
13 | UUGGAGCAAUAUUACGAGUC | -2.81 ± 0.53 | 
14 | CGGUAGCAAUAUUACGACUA | -0.298 ± 0.14 | 0.0316 ± 0.16
15 | UCCGAGCAAUAUUACGAGGU |  | -2.84 ± 0.54
16 | AUAAAGCAAUAUUACGGGCU | -0.992 ± 0.08 | -0.621 ± 0.1
17 | UGACAGCAAUAUUACGGUAU | -3.58 ± 0.2 | -2.45 ± 0.21
18 | AUGAAGCAAUAUUACGAGCU | -1.52 ± 0.12 | -0.173 ± 0.14
19 | CGCGAGCAAUAUUACGGGCC |  | -2.87 ± 0.75
20 | GCCUAGCAAUAUUACGUCUG | -3.97 ± 0.53 | -3.15 ± 0.6
21 | CUGUAGCAAUAUUACGCCUC |  | -1.95 ± 0.81
22 | UUUUAGCAAUAUUACGCUUC | -2.99 ± 0.61 | 
23 | CCGGAGCAAUAUUACGGGUA |  | -1.91 ± 0.63

Copied from above: nos. 22–23
Row | Sequence | self-splicing fitness (ln) (30 °C) | self-splicing fitness (ln) (37 °C)
22 | UUUUAGCAAUAUUACGCUUC | -2.99 ± 0.61 | 
23 | CCGGAGCAAUAUUACGGGUA |  | -1.91 ± 0.63

Later entries.

Row | Sequence | self-splicing fitness (ln) (30 °C) | self-splicing fitness (ln) (37 °C)
24 | GGUGAGCAAUAUUACGCCGG |  | -0.693 ± 0.82
25 | GGAGAGCAAUAUUACGCCGU | -4.31 ± 1 | -0.92 ± 0.61
26 | GAAGAGCAAUAUUACGCUGC | -5.06 ± 0.58 | -2.63 ± 0.48
27 | AUAUAGCAAUAUUACGCCUC | -3.06 ± 0.54 | 
28 | CUACAGCAAUAUUACGUACA | -1.78 ± 0.17 | -1.29 ± 0.2
29 | UCUAAGCAAUAUUACGCGGC |  | -1.59 ± 0.36
30 | UUAGAGCAAUAUUACGGUCA | -1.7 ± 0.15 | -1.34 ± 0.14
31 | GCAUAGCAAUAUUACGCAUG | -3.79 ± 0.23 | -2.12 ± 0.19
32 | UCGGAGCAAUAUUACGAAAA | -2.27 ± 0.72 | -2.23 ± 0.8
33 | UGUUAGCAAUAUUACGGGAU |  | -2.83 ± 0.61
34 | ACGGAGCAAUAUUACGGAAA | -4.51 ± 0.73 | 
35 | CUGAAGCAAUAUUACGAGAA |  | -2.45 ± 0.64
36 | GCAGAGCAAUAUUACGCACU | -3.7 ± 1.1 | 
37 | AGUCAGCAAUAUUACGCGGC |  | -3.78 ± 0.6
38 | UCGGAGCAAUAUUACGCUUC | -3.84 ± 0.62 | -1.88 ± 0.82
39 | AGUAAGCAAUAUUACGCUUG | -4.62 ± 1 | -1.41 ± 0.71
40 | UUUUAGCAAUAUUACGGGCU |  | -0.234 ± 1.4
41 | UAAUAGCAAUAUUACGGAUC | -3.2 ± 0.77 | 
42 | UAGGAGCAAUAUUACGCGCU | -5.04 ± 1 | -1.9 ± 0.81
43 | CCUCAGCAAUAUUACGCGGU | -3.37 ± 0.19 | -2.98 ± 0.33
44 | GCCGAGCAAUAUUACGUCAC | -3.52 ± 1.1 | 
45 | AAGAAGCAAUAUUACGAGGG | -3.5 ± 0.3 | -2.32 ± 0.35
46 | UUUGAGCAAUAUUACGCAGA | -2.9 ± 0.54 | 
